# Results as given in US5925731A (Takeda Chemical Industries, Ltd., priority 1995, dated 1999).
# Assay: general procedure: solution-phase peptide synthesis; WSCD.HCl/HOBt; HONB active esters
# Settings: coupling step
row,Substance,step yield
1,hexamethyleniminocarbonyl-Leu-D-Trp(CHO)-D-Nle-D-Asp(Php)-OBzl,98%

# Same assay, conditions: late stage modification step
row,Substance,step yield
1,Hexamethyleniminocarbonyl-Nle-D-Trp(COOMe)-D-Nle-D-Asp(Php),36%
2,"PEPTIDE1{[HMIC].I.[D-Trp(COOMe)].[D-Nle].[dD]}|CHEM1{[Php]}$PEPTIDE1,CHEM1,5:R3-1:R1$$$V2.0",31%
3,"PEPTIDE1{[HMIC].L.[D-Trp(CHO)].[D-Nle].[dD]}|CHEM1{[Php]}$PEPTIDE1,CHEM1,5:R3-1:R1$$$V2.0",25%
4,"PEPTIDE1{[HMIC].L.[D-Trp(COOMe)].[D-Nle].D}|CHEM1{[Php]}$PEPTIDE1,CHEM1,5:R3-1:R1$$$V2.0",24%
5,"PEPTIDE1{[HMIC].L.[D-Trp(COOMe)].[D-Nle].[dD]}|CHEM1{[2FPhp]}$PEPTIDE1,CHEM1,5:R3-1:R1$$$V2.0",9%
6,"PEPTIDE1{[HMIC].L.[D-Trp(COOMe)].[D-Nle].[dD]}|CHEM1{[2MeO-5MePhp]}$PEPTIDE1,CHEM1,5:R3-1:R1$$$V2.0",12%
7,"PEPTIDE1{[HMIC].L.[D-Trp(COOMe)].[D-Nle].[dD]}|CHEM1{[2MeOPhp]}$PEPTIDE1,CHEM1,5:R3-1:R1$$$V2.0",23%
8,"PEPTIDE1{[HMIC].L.[D-Trp(COOMe)].[D-Nle].[dD]}|CHEM1{[3MeOPhp]}$PEPTIDE1,CHEM1,5:R3-1:R1$$$V2.0",34%
9,"PEPTIDE1{[HMIC].L.[D-Trp(COOMe)].[D-Nle].[dD]}|CHEM1{[Php]}$PEPTIDE1,CHEM1,5:R3-1:R1$$$V2.0",21%
10,PEPTIDE1{[HMIC].L.[D-Trp(COOMe)].[D-Nle].[dE].[Php]}$$$$V2.0,28%
11,hexamethyleniminocarbonyl-Leu-D-Trp(COOMe)-D-Nle-D-Asp (2FPhp)-OBzl,67%
12,hexamethyleniminocarbonyl-Leu-D-Trp(COOMe)-D-Nle-D-Asp (3MeOPhp)-OBzl,79%
13,hexamethyleniminocarbonyl-Leu-D-Trp(COOMe)-D-Nle-D-Asp(2MeO-5MePhp)-OBzl,70%
14,hexamethyleniminocarbonyl-Leu-D-Trp(COOMe)-D-Nle-D-Asp(2MeOPhp)-OBzl,69%
15,hexamethyleniminocarbonyl-Leu-D-Trp(COOMe)-D-Nle-D-Asp-OBzl,59%

# HELM strings list residues between dots; [ac] is acetyl, [am] amide, other brackets name non-standard units.
